Measurements as given in PubChem BioAssay AID743255 (National Center for Advancing Translational Sciences (NCATS), 2014).
Screen size: about 390,000 compounds; about 910 (0.23%) were called active. The shares of active, inactive and inconclusive entries below differ from those in the screen. Calls come from the whole dose curve; as a rule, active = well fitted inhibition curve with a large enough effect; inconclusive = small, poorly fitted or top-dose-only effect; inactive = no such curve, though single readings can be large or run the other way. Potencies of inconclusive entries are doubtful fits and often do not repeat.
Note: nearly all actives have a fitted effect of over 60% in size.
Potency is the fitted concentration of half-maximal effect.

Chains of the proteins cited; added tags and fusions are not shown. Lines headed by an entry give the natural chain unless they say otherwise; changes in a name come on top.
UniProt O94782: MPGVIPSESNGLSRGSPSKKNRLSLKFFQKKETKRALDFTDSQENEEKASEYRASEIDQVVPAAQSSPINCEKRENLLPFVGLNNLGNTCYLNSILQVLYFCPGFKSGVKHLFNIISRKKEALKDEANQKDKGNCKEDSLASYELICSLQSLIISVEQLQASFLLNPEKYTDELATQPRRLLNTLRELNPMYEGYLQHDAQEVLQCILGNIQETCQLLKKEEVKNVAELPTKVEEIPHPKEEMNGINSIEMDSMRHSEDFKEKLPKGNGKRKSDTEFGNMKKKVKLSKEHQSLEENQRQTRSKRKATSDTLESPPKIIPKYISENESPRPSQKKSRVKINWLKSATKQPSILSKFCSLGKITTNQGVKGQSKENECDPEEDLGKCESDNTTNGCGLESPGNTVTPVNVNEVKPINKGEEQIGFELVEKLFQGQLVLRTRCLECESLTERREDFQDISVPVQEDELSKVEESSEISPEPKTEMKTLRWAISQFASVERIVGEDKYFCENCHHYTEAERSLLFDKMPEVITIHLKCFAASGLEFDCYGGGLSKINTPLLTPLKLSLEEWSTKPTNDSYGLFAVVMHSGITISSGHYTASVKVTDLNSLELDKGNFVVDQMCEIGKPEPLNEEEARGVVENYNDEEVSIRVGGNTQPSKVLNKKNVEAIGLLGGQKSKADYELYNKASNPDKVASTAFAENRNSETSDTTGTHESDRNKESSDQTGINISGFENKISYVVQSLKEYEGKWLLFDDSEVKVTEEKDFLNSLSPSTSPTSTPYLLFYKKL

These compounds were tested against Ubiquitin carboxyl-terminal hydrolase 1 (Homo sapiens) (UniProt O94782) (assay: Inhibitors of USP1/UAF1: Primary Screen). Details: recombinant USP1/UAF1, Ub-Rhodamine cleavage fluorescence; series mostly up to 57.1 µM.
Outline: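 In this screen, compounds sit with the deubiquitinase complex (1nM) for 15 min at room temperature before Ub-Rho is added at 150nM final. Fluorescence rise is then followed for 6 reads every 60 seconds.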
`O=C(Nc1cccc(NC(=O)c2ccc(Br)o2)c1)c1ccccc1` was tested, and the Potency was inconclusive: 50.1 µM [inhibitor, partial curve, poor fit].
With `COc1ccc(/C=C/C(=O)c2ccccc2)cc1Cn1nnc2ccccc21` the Potency was “inactive”.
In the case of `Cn1c(C(=O)NCCc2ccccc2)cc2c(=O)n3ccccc3nc21`, the Potency is reported as inconclusive: 35.5 µM [inhibitor, single point].
In the case of `O=C(c1ccc2c(c1)OCCO2)N(Cc1cccnc1)c1nc2c(F)cccc2s1`, the Potency is reported as inconclusive: 8.91 µM [inhibitor, partial curve, poor fit].
In the case of `Cc1cc(OC(=O)c2cccc(Br)c2)c([N+](=O)[O-])c(=O)[nH]1`, the Potency is reported as inconclusive: 39.8 µM [inhibitor, single point].
In the case of `COc1ccc(CNC(=O)c2c(C)oc3c2C(=O)c2ccccc2C3=O)cc1`, the Potency is reported as inconclusive: 3.16 µM [inhibitor, partial curve].
`O=C/C=C/c1c(-c2ccccc2)cc2oc3ccccc3cc1-2` was tested, and the Potency was inconclusive: 50.1 µM [inhibitor, partial curve, poor fit].
For `O=C1C(=Cc2ccccc2O)SC(=S)N1CCCN1CCOCC1`, the Potency was inconclusive: 5.01 µM [inhibitor, full curve].
`Oc1ccccc1NCC(O)Cn1ccc2ccccc21` (stereo not drawn) was tested, and the Potency was inconclusive: 17.8 µM [inhibitor, partial curve].
In the case of `CCCSc1oc(-c2cccs2)nc1S(=O)(=O)c1ccc(Cl)cc1`, the Potency is reported as inconclusive: 1.78 µM [inhibitor, partial curve].
With `C(=N\Nc1nn2cnnc2c2ccccc12)/c1ccco1` the Potency was inconclusive: 39.8 µM [inhibitor, single point].
For `O=C(NCc1ccccc1)C(=O)NCC(c1ccc2c(c1)OCO2)N1CCOCC1` (stereo not drawn), the Potency was “inactive”.
With `Cc1occc1C(=O)NNC(=S)NC(=O)COc1ccc(Cl)cc1Cl` the Potency was “inactive”.
`COc1cccc(/C=C2/C(=O)NN(c3ccccc3)C2=O)c1` was tested, and the Potency was “inactive”.
With `CN(C)C(=O)c1cc(C(=O)c2ccccc2C(F)(F)F)c[nH]1` the Potency was inconclusive: 44.7 µM [inhibitor, partial curve, poor fit].
`COc1ccc(C2C(=O)N(C3CCCCC3)CC(=O)N2CCC2=CCCCC2)cc1` (stereo not drawn) was tested, and the Potency was “inactive”.
In the case of `COc1ccc(-n2cc(C(=O)OCc3ccc(F)c(F)c3)c3ccccc3c2=O)cc1`, the Potency is reported as inconclusive: 141 µM [inhibitor, partial curve, poor fit].
For `Oc1ccc(/C=C/c2ccc3cccc(O)c3n2)cc1Br`, the Potency was inconclusive: 44.7 µM [inhibitor, partial curve, poor fit].
With `Cc1ccc(-n2c(C)cc(/C=C3\SC(=O)NC3=O)c2C)cc1` the Potency was “inactive”.
With `O=C1c2ccccc2C(=O)N1CCc1csc(NNc2nc(CCN3C(=O)c4ccccc4C3=O)cs2)n1` the Potency was “inactive”.
For `O=C(c1ccc2nc(N3CCCCC3)sc2c1)N1CCN(c2ccccn2)CC1`, the Potency was inconclusive: 0.891 µM [inhibitor, full curve, poor fit].
For `O=c1c2cccnc2n(Cc2ccccc2F)c(=O)n1Cc1ccc(F)cc1`, the Potency was inconclusive: 50.1 µM [inhibitor, partial curve, poor fit].
For `COc1cccc(CNC(=O)c2ccc3nc(N4CCCCC4)sc3c2)c1OC`, the Potency was inconclusive: 10 µM [inhibitor, partial curve].
With `Cc1ccc(CNc2nc(C)c(C(=O)N(C)C)s2)cc1` the Potency was inconclusive: 39.8 µM [inhibitor, single point].
`CCOc1ccc2nc(N3CCN(C(=O)c4ccc5c(c4)CCCC5)CC3)sc2c1` was tested, and the Potency was “inactive”.
For `O=C(Nc1nc2ccccc2[nH]1)c1ccc(Cl)cc1`, the Potency was inconclusive: 8.91 µM [inhibitor, single point].
For `C/C=C(\C)C(=O)Nc1cccc(C2=NOC3(C2)C[C@H](C(N)=O)N(C(=O)C(c2ccccc2)c2ccccc2)C3)c1` (stereo partly drawn), the Potency was inconclusive: 2.82 µM [inhibitor, full curve].
`Cc1cc(C(=O)CSc2nnnn2-c2ccccc2)c(C)n1CCc1ccccc1` was tested, and the Potency was “inactive”.
With `O=C(Nc1cccc(C(=O)O)c1)/C(=C\c1ccccc1)NC(=O)c1ccccc1` the Potency was inconclusive: 4.47 µM [inhibitor, partial curve].
`Cc1ccc2[nH]c(=O)c3cc(C(=O)N(C)c4ccc(Br)cc4)sc3c2c1` was tested, and the Potency was inconclusive: 31.6 µM [inhibitor, partial curve].
For `Cc1cc(C)c(S(=O)(=O)Nc2cc(SCC(=O)O)c(O)c3ccccc23)cc1C`, the Potency was inconclusive: 35.5 µM [inhibitor, partial curve, poor fit].
In the case of `Cc1cc(C)cc(OCC(O)CN2CCC(CN3C(=O)c4cccc5cccc(c45)C3=O)CC2)c1` (stereo not drawn), the Potency is reported as “inactive”.
With `O=C(Nc1ccc(Br)cc1)C1C2C=CC3(O2)C1C(=O)N(CCN1CCOCC1)C3C(=O)NC1CCCCC1` (stereo not drawn) the Potency was inconclusive: 1.26 µM [inhibitor, full curve].
For `Cc1c(Cl)cccc1NC(=O)CCN1C(=O)NC(C)(C)C1=O`, the Potency was “inactive”.
`COc1ccc2[nH]c3c(N4CCC(O)(c5cccc(C(F)(F)F)c5)CC4)ncnc3c2c1` was tested, and the Potency was “inactive”.
In the case of `COc1ccc(-c2csc(Nc3ccccn3)n2)cc1OC`, the Potency is reported as inconclusive: 44.7 µM [inhibitor, partial curve, poor fit].
In the case of `Cc1oc(-c2ccc(Cl)cc2)nc1CN1CCC(C(=O)NCc2cccnc2)CC1`, the Potency is reported as “inactive”.
In the case of `CCOC(=O)c1ccc(NC(=O)CSc2c(C(C)C)cnc3c2c(=O)n(C)c(=O)n3C)cc1`, the Potency is reported as “inactive”.
In the case of `COc1ccc2c(c1)c1c(c(=O)n(-c3ccc(F)c(Cl)c3)c(=O)n1Cc1cccc(C)c1)n2C`, the Potency is reported as inconclusive: 0.199 µM [inhibitor, full curve].
`S=C(NCCc1c[nH]c2ccccc12)NC1CCCCC1` was tested, and the Potency was inconclusive: 39.8 µM [inhibitor, partial curve, poor fit].
For `COc1ccc(/C=C/c2ccccc2)cc1[C@H]1[C@H]2C=CC[C@@H](C)[C@@H]2C(=O)N1Cc1ccccc1`, the Potency was inconclusive: 3.55 µM [inhibitor, full curve, poor fit].
In the case of `CCOC(=O)C1CCN(C(=O)c2cc(COc3ccc(OC)c4ccccc34)on2)CC1`, the Potency is reported as “inactive”.
In the case of `COc1ccc(NC(=O)COC(=O)COc2cccc(Br)c2)cc1OC`, the Potency is reported as inconclusive: 14.1 µM [inhibitor, partial curve, poor fit].
In the case of `COc1cccc(-c2ccc(SCC(=O)N3CCN(c4ccccc4)CC3)nn2)c1`, the Potency is reported as inconclusive: 2.51 µM [inhibitor, full curve, poor fit].
For `CCCCNC(=O)NC1CCCC1`, the Potency was inconclusive: 35.5 µM [inhibitor, partial curve, poor fit].
In the case of `C[C@@H]1CN([C@@H](C)CO)C(=O)CCCn2nncc2CO[C@H]1CN(C)S(=O)(=O)c1ccc(Oc2ccccc2)nc1`, the Potency is reported as inconclusive: 0.316 µM [inhibitor, full curve, poor fit].
`O=C1C=CC2(O[C@H](c3ccccc3)[C@@H](c3ccccc3)O2)[C@H](Sc2ccccc2O)C1` was tested, and the Potency was “inactive”.
`COc1ccc(CN2CC(=O)N3[C@H]4c5ccccc5OC[C@@H]4[C@H](c4ccccc4)[C@]3(C)C2=O)cc1` was tested, and the Potency was inconclusive: 50.1 µM [inhibitor, single point].
In the case of `CCCc1ccc(OC(C)C(=O)Nc2sc3c(c2C(=O)OC)CCCCC3)cc1` (stereo not drawn), the Potency is reported as inconclusive: 5.01 µM [inhibitor, full curve, poor fit].
With `CC1CCN(S(=O)(=O)c2ccc3c(c2)oc(=O)n3CC(=O)NC(C)c2ccccc2)CC1` (stereo not drawn) the Potency was “inactive”.
For `CCOc1ccccc1C1CC(=O)NC(SCC(=O)Nc2nccs2)=C1C#N` (stereo not drawn), the Potency was inconclusive: 50.1 µM [inhibitor, partial curve, poor fit].
For `O=C(CCc1nnc2n(Cc3ccccc3Cl)c(=O)c3ccccc3n12)Nc1ccc(F)cc1`, the Potency was inconclusive: 0.562 µM [inhibitor, full curve, poor fit].
`CC(=O)C1=C(c2ccc(Cl)c(Cl)c2)N(C(C)=O)n2c(nnc2C2CCCCC2)S1` was tested, and the Potency was inconclusive: 2.51 µM [inhibitor, partial curve].
For `O=C(CSc1nnc(CNC(=O)c2ccccc2F)n1-c1ccccc1)Nc1ccccc1F`, the Potency was “inactive”.
`O=C(N/N=C/c1c[nH]c2ccccc12)c1cc(-c2ccccc2)n[nH]1` was tested, and the Potency was inconclusive: 0.708 µM [inhibitor, full curve, poor fit].
With `CCOC(=O)c1ccc(NC(=O)Nc2ccc3c4c(cccc24)C(=O)N3CC)cc1` the Potency was inconclusive: 44.7 µM [inhibitor, partial curve, poor fit].
In the case of `Cc1cc(C(=O)Cn2nc(C(=O)O)c3ccccc3c2=O)c(C)n1C1CC1`, the Potency is reported as inconclusive: 39.8 µM [inhibitor, single point].
With `COc1cc(NC(=O)c2ccc(-c3nc(COc4ccccc4)c(C)o3)cc2)cc(OC)c1` the Potency was inconclusive: 7.08 µM [inhibitor, full curve, poor fit].
For `O=C(Nc1ccccc1)C1=C[C@@H](c2ccc3c(c2)OCO3)C[C@@H](OCCCCO)O1`, the Potency was inconclusive: 2.82 µM [inhibitor, full curve, poor fit].
For `O=C1C=CC(=O)c2c(O)c(N3CCN(CCO)CC3)c(Cl)c(O)c21`, the Potency was active: 2.82 µM.
In the case of `CC1(C)C2CC=C(/C=N/NC(=S)Nc3cccnc3)C1C2` (stereo not drawn), the Potency is reported as inconclusive: 0.251 µM [inhibitor, full curve, poor fit].
For `COC(=O)c1ccccc1NC(=O)c1ccccc1OC`, the Potency was inconclusive: 44.7 µM [inhibitor, partial curve, poor fit].
In the case of `CCOC(=O)c1c(NC(=O)Nc2ccc(C)cc2)sc2c1CCN(C)C2`, the Potency is reported as inconclusive: 25.1 µM [inhibitor, partial curve, poor fit].
